Measurements published in patent US8815847B2, “[1,2,4]thiadiazine 1,1-dioxide compounds for lowering serum uric acid” (Anadys Pharmaceuticals, Inc., priority 2011, dated 2014).

Tested on: serum uric acid
Conditions: single 800 mg oral dose, all six patients receiving the compound

CS(=O)(=O)Nc1ccc2c(c1)S(=O)(=O)N=C(C1=C(O)[C@@H]3[C@H]4CC[C@H](C4)[C@@H]3N(Cc3ccc(F)cc3)C1=O)N2 [Example 2, N-{3-[(1R,2S,7R,8S)-3-(4-Fluoro-benzyl)-6-hydroxy-4-oxo-3-aza-tricyclo[6.2.1.0^2,7]undec-5-en-5-yl]-1,1-dioxo-1,4-dihydro-1λ^6-benzo[1,2,4]thiadiazin-7-yl}-methanesulfonamide] was tested, and the “decreases in uric acid from the baseline to the end of the trial” value was 24-40%.
